1 sequence from PMC4996945, “Crosstalk between MSH2–MSH3 and polβ promotes trinucleotide repeat expansion during base excision repair” can be followed below.

For at least one entry, the source does not settle the construct or the ends of the probe.

This data set concerns OGG1. The experiment in a line: gel filtration. The following applies: 1:1:1 OGG1, MSH2-MSH3, DNA, OGG1-DNA peak resolved from MSH2-MSH3-DNA; one 8-oxo-G (stated position 17, exact G not marked in text); complement not given; 10 mM HEPES pH 8.1, 110 mM NaCl, 1 mM DTT, 0.1 mg/ml BSA, 10% glycerol, 0.25% inositol, 5 mM Mg2+, 2 mM ATP, 2 mM ADP; on ice; recombinant protein. For orientation: Size exclusion chromatography separates by hydrodynamic size, large species first.

Regarding “CAAGCACGTTGACTACCGTCCAGCAGCAGCAGCAGCAGCAGCAGCAGCAGCAGCAGCAGTTTGAGGCAGAGTCCGAACAC (double strand) [CAG-duplex (80) with one 8-oxo-G]”, the binding result is listed as “binds”.
